# According to PubChem BioAssay AID485353 (National Center for Advancing Translational Sciences (NCATS), 2010):
# Among all 330,000 compounds or so, about 610 (0.18%) were called active. The shares of active, inactive and inconclusive entries below differ from those in the screen. The call rests on the fitted dose curve. Potencies beside an inconclusive call are fits to weak or partial responses and may not hold up.
# Assay: qHTS of Yeast-based Assay for SARS-CoV PLP; further: nearly all actives have a fitted effect of over 55% in size
# Conditions: S. cerevisiae expressing SARS-CoV PLpro; Potency: growth rescue; series mostly up to 32.9 µM
# Potency means the concentration at half of the fitted maximal effect.
row,SMILES,Potency
1,C=CCc1cccc(/C=C/c2cc(=O)c3ccccc3[nH]2)c1O,"inconclusive: 4.47 µM [activator, single point]"
2,COC(=O)c1ccc(C2C(C#N)=C(N)Oc3cc(N)ccc32)cc1 (stereo not given),"inconclusive: 20 µM [activator, single point]"
3,Cc1ccc(-c2cc(C(=O)Nc3cc(C)ccc3O)no2)cc1,"inconclusive: 12.6 µM [activator, single point]"
4,COc1ccc(NC(=O)c2cc(S(=O)(=O)N3CCOCC3)ccc2C)cc1S(=O)(=O)N1CCOCC1,"inconclusive: 3.55 µM [activator, single point]"
5,COc1cccc(-c2cc(C(=O)NC3CCCC3)no2)c1,inactive
6,Cc1ccc(-c2nn(CC(=O)NCc3cc(-c4nn(C)c(=O)c5ccccc45)ccc3C)c(=O)c3ccccc23)cc1,inactive
7,CCN(C(=O)COC(=O)Cn1cnc2c1c(=O)n(C)c(=O)n2C)C1CCS(=O)(=O)C1 (stereo not given),inactive
8,O=C(c1ccccc1NS(=O)(=O)c1ccc2c(c1)OCCO2)N1CCOCC1,"inconclusive: 2.82 µM [activator, single point]"
9,O=S(=O)(NC1CC(NS(=O)(=O)OCC(Cl)(Cl)Cl)C2CCCCC12)OCC(Cl)(Cl)Cl (stereo not given),inactive
10,CCOc1ccccc1N1CCN(C(=O)c2cc[n+]([O-])cc2)CC1,"inconclusive: 15.8 µM [activator, single point]"
11,Cc1ccc(CNC(=O)Cn2nnc(C(=O)Nc3cc(C)ccc3C)c2N)cc1,"inconclusive: 5.01 µM [activator, partial curve]"
12,O=C1c2ccccc2NC(c2cn[nH]c2-c2ccccc2)N1O (stereo not given),"inconclusive: 14.1 µM [activator, single point]"
13,Cc1cc(C)nc(NC(=O)CSc2ccccn2)n1,"inconclusive: 11.2 µM [activator, single point]"
14,CC(C)[C@H](NC(=O)C1CC(=O)N(c2ccc3c(c2)OCCO3)C1)C(=O)NC1CCCC1 (stereo not given in full),"inconclusive: 2.82 µM [activator, single point]"
15,O=c1[nH]c(C2CCCN(S(=O)(=O)c3ccccc3)C2)nc2c1nnn2Cc1ccccc1Br (stereo not given),"inconclusive: 11.2 µM [activator, single point]"
16,Cc1ccc(O)c(-c2cc(C(=O)Nc3cccnc3)[nH]n2)c1,inactive
17,CC(Sc1nnnn1-c1ccc(O)cc1)C(=O)NNC(=O)c1ccc(F)cc1 (stereo not given),inactive
18,CCOP(=S)(NN(Cc1ccccc1)C(=O)c1ccccc1)OCC,"inconclusive: 20 µM [activator, single point]"
19,COc1ccc(NC2CCCN(C(=O)COc3ccc(Cl)cc3C)C2)cc1OC (stereo not given),"inconclusive: 15.8 µM [activator, single point]"
20,CCn1c(SCC(=O)Nc2ccccc2N2CCCCC2)nc2c1c(=O)n(C)c(=O)n2C,"inconclusive: 3.98 µM [activator, single point]"
21,Cc1[nH]c2ccc(OC(=O)N3CCOCC3)cc2c1C(=O)OC(C)C,"inconclusive: 12.6 µM [activator, single point]"
22,O=C(Nc1cc(-c2ccccc2)nn1C1CCCCC1)c1ccc(Cl)cc1,"inconclusive: 3.55 µM [activator, single point]"
23,O=C(NCC1CCCO1)c1cccc(Oc2ccc([N+](=O)[O-])cc2)c1 (stereo not given),"inconclusive: 2 µM [activator, full curve]"

row,SMILES,Potency
1,CCN(CC)S(=O)(=O)c1ccc(N=Nc2c(C)[nH]n(C(N)=S)c2=O)cc1,"inconclusive: 1.58 µM [activator, single point]"
2,CCOc1ccc(NC(=O)CSc2ccc(-c3ccccn3)nn2)cc1,active: 7.94 µM
3,CC(=O)c1ccc(OCc2cc(C(=O)N(C)Cc3ncc(C)[nH]3)no2)cc1,"inconclusive: 0.447 µM [activator, full curve]"
4,COc1ccc(/C=N/N=C/c2ccc(OC)cc2)cc1,inactive
5,O=C(OCC#CCSc1nnc(-c2cccc3ccccc23)o1)c1cccc2[nH]ccc12,inactive
6,N/C(Cc1cccc2ccccc12)=N\OC(=O)Cc1cccs1,inactive
7,CCN(CC)CCNCc1cc(Cl)c(OCC(=O)Nc2ccccc2)c(OC)c1,inactive
8,Cc1ccc2cccnc2c1N,"inconclusive: 4.47 µM [activator, single point]"
9,COc1ccc(-c2ccc(-c3noc(-c4cccs4)n3)c(OC)n2)cc1,"inconclusive: 3.55 µM [activator, single point]"
10,CCCOc1ccc(/C=N/Nc2cc(N3CCOCC3)ncn2)c(O)c1,active: 5.01 µM
11,COc1ccc(/C=C2\SC(=S)N(CCC(=O)Nc3ccc(C(=O)O)cc3)C2=O)cc1,inactive
12,Cc1ccc(OCC(=O)N/N=C\c2c(C)[nH]n(-c3ccccc3)c2=O)c([N+](=O)[O-])c1,active: 5.62 µM
13,CC[n+]1c(/C=C/N(C)c2ccccc2)n(-c2ccccc2)c2ccc(-c3nc4ccccc4s3)cc21,inactive
14,COc1ccc(/C=C/C(=O)Nc2ccc(NC(C)=O)cc2)cc1S(=O)(=O)N1CCOCC1,inactive
15,CCC1CCCCN1CCNS(=O)(=O)c1ccc2c(c1)CCN2C(C)=O (stereo not given),"inconclusive: 4.47 µM [activator, single point]"
16,C=CCS(=O)(=O)c1nc2ccccc2s1,inactive
17,CCOC(=O)c1c(-c2ccc(OC)cc2)csc1/N=C/C1=C(O)CCCC1=O,"inconclusive: 3.55 µM [activator, partial curve]"
18,CC1CN(C(=O)Cn2c(C(F)(F)F)nc3ccccc32)CC(C)O1 (stereo not given),"inconclusive: 4.47 µM [activator, single point]"
19,O=C(NCc1ccccc1)C(c1ccc(F)cc1)N(Cc1ccc2c(c1)OCO2)C(=O)Cn1nnc(-c2cccs2)n1 (stereo not given),inactive
20,CCCCn1c(SCC(=O)N2CCC(C)CC2)nc2cc(S(N)(=O)=O)ccc21,"inconclusive: 3.16 µM [activator, partial curve]"
21,COc1cc(CNCc2ccccn2)ccc1OCc1ccc(Cl)cc1,"inconclusive: 20 µM [activator, single point]"
22,COc1cc(Cn2c(=O)oc3ccc(C)cc32)ccc1OC(C)C,inactive

# Looked up one by one from the list above (3):
row,SMILES,Potency
7,CCN(C(=O)COC(=O)Cn1cnc2c1c(=O)n(C)c(=O)n2C)C1CCS(=O)(=O)C1 (stereo not given),inactive
22,COc1cc(Cn2c(=O)oc3ccc(C)cc32)ccc1OC(C)C,inactive
6,N/C(Cc1cccc2ccccc12)=N\OC(=O)Cc1cccs1,inactive

# Single entries from the entries so far.
# O=C(OCC#CCSc1nnc(-c2cccc3ccccc23)o1)c1cccc2[nH]ccc12 | Potency: inactive
# COc1ccc(-c2ccc(-c3noc(-c4cccs4)n3)c(OC)n2)cc1 | Potency: inconclusive: 3.55 µM [activator, single point]
